Data published in doi:10.1101/2021.02.04.429732.
Results are given in words; binding and its absence hold for the method and conditions named. In cells and extracts the contact can be indirect. These calls come from enrichment with a bait or labelling near it, and not all partners need be listed.

Protein sequences, listed by entry. Tags and fused reporters are not part of them.
UniProt Q9H8M2: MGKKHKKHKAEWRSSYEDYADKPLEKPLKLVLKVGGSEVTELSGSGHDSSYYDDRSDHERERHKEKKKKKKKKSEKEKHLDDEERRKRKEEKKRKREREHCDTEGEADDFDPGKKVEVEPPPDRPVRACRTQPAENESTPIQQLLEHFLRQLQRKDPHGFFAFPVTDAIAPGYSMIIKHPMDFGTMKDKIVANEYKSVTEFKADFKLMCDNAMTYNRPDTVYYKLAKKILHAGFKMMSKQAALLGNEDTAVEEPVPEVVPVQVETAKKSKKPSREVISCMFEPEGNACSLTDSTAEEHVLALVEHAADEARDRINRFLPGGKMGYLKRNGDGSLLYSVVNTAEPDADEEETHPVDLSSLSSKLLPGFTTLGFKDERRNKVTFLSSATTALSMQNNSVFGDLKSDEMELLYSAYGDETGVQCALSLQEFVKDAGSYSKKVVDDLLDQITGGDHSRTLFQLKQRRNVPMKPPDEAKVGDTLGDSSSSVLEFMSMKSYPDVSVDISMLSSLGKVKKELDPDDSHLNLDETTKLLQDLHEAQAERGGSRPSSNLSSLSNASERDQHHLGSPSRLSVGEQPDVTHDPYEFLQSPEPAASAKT
UniProt Q9NZM4: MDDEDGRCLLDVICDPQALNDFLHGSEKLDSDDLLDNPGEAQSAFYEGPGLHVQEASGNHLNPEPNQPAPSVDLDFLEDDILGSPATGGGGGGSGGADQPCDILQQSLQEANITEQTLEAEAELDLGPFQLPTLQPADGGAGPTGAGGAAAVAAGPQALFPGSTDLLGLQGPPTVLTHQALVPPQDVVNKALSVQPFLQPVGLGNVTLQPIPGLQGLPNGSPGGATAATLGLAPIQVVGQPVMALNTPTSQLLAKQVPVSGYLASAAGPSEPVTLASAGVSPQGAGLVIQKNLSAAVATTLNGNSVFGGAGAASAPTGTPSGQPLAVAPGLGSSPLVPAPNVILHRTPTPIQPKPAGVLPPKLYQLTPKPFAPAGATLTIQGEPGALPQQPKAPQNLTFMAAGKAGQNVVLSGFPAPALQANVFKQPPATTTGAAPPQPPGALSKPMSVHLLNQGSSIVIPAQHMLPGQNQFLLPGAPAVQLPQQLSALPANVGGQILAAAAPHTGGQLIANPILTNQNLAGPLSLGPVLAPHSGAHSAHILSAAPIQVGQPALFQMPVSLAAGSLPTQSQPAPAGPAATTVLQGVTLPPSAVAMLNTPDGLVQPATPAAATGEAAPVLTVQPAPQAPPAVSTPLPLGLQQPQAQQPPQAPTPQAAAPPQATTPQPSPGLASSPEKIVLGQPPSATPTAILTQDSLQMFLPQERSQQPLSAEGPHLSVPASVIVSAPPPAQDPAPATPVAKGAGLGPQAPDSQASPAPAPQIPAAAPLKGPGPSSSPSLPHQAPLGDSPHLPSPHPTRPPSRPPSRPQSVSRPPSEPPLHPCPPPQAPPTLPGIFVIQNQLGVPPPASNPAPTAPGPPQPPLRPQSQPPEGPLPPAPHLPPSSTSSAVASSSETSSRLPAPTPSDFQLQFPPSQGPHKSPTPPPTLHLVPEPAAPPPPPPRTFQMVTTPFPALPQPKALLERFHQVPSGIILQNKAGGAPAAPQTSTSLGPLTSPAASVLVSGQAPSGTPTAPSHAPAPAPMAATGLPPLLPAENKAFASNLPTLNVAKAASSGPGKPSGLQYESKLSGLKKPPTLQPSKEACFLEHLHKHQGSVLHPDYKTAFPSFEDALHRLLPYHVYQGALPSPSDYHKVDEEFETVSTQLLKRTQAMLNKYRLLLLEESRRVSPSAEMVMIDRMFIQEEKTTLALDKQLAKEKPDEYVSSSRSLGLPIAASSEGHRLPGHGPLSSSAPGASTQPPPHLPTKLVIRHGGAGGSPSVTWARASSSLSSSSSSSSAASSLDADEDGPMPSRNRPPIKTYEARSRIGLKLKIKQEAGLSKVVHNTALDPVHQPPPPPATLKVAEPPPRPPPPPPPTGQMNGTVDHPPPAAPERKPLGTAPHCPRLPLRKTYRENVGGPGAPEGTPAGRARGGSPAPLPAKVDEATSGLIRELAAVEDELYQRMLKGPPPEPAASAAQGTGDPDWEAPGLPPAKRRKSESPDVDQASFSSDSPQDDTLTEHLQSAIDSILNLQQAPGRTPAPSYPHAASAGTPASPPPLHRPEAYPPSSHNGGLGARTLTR
UniProt Q6AI39: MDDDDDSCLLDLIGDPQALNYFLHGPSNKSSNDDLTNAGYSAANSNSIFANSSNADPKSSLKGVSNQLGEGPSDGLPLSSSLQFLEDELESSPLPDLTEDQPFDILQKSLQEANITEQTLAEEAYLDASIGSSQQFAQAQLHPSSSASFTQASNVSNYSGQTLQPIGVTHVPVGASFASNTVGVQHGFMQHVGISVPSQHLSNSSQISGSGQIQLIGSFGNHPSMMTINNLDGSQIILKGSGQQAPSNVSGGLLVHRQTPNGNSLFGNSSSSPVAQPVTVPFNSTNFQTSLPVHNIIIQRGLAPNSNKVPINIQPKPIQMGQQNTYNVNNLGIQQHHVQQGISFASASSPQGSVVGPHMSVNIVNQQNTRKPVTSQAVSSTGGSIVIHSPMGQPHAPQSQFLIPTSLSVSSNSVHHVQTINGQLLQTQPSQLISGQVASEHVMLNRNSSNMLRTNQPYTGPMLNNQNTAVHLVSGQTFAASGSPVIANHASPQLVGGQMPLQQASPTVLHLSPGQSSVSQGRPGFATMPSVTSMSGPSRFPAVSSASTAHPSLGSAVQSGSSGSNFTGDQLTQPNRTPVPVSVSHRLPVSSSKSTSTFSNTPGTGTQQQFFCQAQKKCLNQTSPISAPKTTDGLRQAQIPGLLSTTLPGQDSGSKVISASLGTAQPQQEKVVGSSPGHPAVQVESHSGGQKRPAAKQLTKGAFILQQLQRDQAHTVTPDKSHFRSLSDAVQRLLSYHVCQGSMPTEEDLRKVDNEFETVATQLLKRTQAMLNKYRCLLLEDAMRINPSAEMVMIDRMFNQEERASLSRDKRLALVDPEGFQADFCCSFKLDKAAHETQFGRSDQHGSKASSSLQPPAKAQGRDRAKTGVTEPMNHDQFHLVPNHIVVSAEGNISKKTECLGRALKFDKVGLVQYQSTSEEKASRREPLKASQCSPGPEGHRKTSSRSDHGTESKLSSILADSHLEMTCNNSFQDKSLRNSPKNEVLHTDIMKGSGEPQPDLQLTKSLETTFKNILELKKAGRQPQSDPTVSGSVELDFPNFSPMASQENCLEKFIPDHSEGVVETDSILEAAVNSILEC

Target: TurboID-tagged BRD9 (Bromodomain-containing protein 9) (human) (UniProt Q9H8M2)
Experiment: proximity labelling

binding | Substance
binds | GLTSCR1 (from UniProt Q9NZM4 1-1560)
binds | GLTSCR1L (from UniProt Q6AI39 1-1079)
